Among the data in paper PMC3937224, “Convergence of Light and ABA Signaling on the ABI5 Promoter” (PLoS Genetics, 2014) are binding values, retold here.

Positions count from the first letter of the chain named. Names and notes keep the numbering of the source. These are yes or no findings as the source states them, for the method shown. Some results given as binding are weak or reduced against the parent protein; the word gives no strength.

Assay [1] addresses T1, ABI5 (Arabidopsis thaliana) (UniProt Q9SJN0).
T1 sequence: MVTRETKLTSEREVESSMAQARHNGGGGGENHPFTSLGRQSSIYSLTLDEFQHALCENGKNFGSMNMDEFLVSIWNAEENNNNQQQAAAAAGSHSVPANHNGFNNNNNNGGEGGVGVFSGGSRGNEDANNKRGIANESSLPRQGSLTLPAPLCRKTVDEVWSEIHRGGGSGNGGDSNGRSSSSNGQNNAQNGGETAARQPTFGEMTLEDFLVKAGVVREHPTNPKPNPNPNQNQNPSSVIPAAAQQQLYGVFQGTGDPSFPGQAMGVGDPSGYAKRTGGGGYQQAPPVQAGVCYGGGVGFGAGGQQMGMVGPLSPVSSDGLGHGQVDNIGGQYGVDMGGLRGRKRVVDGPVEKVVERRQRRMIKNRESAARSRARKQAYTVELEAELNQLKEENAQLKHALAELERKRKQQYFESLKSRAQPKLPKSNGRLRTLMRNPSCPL
The experiment in a line: two-hybrid; yeast two-hybrid; X-gal plates and liquid assay (Clontech Yeast Protocols Handbook); BBX21 domains fused to GAL4-AD.

In assay [2] the target is T2, HY5 (Arabidopsis thaliana) (UniProt O24646).
T2 sequence: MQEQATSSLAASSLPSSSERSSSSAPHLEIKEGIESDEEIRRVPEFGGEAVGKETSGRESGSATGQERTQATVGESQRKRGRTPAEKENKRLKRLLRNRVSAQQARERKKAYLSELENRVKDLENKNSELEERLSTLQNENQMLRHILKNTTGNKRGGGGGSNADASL
Described as above.

B1: 6×His-BBX21 (natural protein, Arabidopsis thaliana, UniProt Q9LQZ7 1-331, looked up)
chain: MKIRCDVCDKEEASVFCTADEASLCGGCDHQVHHANKLASKHLRFSLLYPSSSNTSSPLCDICQDKKALLFCQQDRAILCKDCDSSIHAANEHTKKHDRFLLTGVKLSATSSVYKPTSKSSSSSSSNQDFSVPGSSISNPPPLKKPLSAPPQSNKIQPFSKINGGDASVNQWGSTSTISEYLMDTLPGWHVEDFLDSSLPTYGFSKSGDDDGVLPYMEPEDDNNTKRNNNNNNNNNNNTVSLPSKNLGIWVPQIPQTLPSSYPNQYFSQDNNIQFGMYNKETSPEVVSFAPIQNMKQQGQNNKRWYDDGGFTVPQITPPPLSSNKKFRSFW
notes: BBX21 (STH2), Arabidopsis thaliana; also called 6×His-tagged BBX21; source: Escherichia coli, purified
For B1, the binding result in assay [1] and in assay [2] was “binds” throughout.

B2: BBX21 D75A (protein, UniProt Q9LQZ7 1-331)
chain: B1 chain with D75A
On to B2, for which the binding entry in assay [1] was “binds”.

B3: BBX21 D20A (protein, UniProt Q9LQZ7 1-331)
chain: B1 chain with D20A
In the case of B3, the binding result in assay [1] is reported as “binds”.

B4: BBX21 D84A (protein, UniProt Q9LQZ7 1-331)
chain: B1 chain with D84A
Consider B4, for which the binding result in assay [1] is recorded as “binds”.
